# The list shows a part of the results.
# By UniProt entry, the sequences of proteins in these tests, tags left out. Where a name states a change or a piece, a line headed by the entry shows the natural chain unless it says otherwise.
# UniProt Q86V21: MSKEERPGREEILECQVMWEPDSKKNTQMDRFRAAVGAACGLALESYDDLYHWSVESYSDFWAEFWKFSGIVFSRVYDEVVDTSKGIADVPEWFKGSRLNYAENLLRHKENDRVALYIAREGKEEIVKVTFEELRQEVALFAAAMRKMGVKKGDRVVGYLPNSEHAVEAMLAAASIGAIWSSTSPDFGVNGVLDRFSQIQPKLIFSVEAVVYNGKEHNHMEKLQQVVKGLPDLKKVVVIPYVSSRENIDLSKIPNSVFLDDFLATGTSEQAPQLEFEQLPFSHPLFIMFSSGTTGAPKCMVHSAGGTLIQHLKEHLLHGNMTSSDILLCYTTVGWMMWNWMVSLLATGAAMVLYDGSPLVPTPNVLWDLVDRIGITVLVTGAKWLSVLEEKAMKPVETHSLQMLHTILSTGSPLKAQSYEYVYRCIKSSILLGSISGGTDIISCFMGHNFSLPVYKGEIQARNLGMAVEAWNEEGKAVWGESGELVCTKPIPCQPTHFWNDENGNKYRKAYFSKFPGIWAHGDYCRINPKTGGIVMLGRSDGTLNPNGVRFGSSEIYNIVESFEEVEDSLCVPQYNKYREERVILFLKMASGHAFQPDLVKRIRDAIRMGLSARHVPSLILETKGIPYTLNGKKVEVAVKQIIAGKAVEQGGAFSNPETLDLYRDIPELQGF
# UniProt Q8NE71: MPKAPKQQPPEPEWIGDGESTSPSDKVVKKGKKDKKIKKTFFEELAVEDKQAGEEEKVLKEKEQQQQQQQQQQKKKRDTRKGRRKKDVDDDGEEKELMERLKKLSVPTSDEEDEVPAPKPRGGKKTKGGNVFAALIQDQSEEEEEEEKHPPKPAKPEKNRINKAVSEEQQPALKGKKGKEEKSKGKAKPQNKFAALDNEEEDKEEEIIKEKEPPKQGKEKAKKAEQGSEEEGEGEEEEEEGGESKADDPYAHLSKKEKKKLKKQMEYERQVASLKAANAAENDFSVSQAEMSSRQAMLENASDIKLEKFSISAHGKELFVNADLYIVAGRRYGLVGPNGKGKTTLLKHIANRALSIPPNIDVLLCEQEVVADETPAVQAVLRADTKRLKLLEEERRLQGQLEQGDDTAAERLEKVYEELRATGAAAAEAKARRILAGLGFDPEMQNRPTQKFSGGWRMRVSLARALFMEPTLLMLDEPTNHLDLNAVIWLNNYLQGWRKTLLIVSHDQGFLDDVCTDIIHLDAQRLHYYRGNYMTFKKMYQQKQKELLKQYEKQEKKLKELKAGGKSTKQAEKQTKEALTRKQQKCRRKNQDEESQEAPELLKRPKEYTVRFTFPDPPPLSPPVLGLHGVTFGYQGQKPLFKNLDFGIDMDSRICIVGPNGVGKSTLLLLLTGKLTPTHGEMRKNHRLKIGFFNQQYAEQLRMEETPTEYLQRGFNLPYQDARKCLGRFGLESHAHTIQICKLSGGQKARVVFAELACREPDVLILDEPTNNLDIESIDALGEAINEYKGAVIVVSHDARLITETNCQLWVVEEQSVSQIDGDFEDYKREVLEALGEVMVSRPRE
# UniProt P78363: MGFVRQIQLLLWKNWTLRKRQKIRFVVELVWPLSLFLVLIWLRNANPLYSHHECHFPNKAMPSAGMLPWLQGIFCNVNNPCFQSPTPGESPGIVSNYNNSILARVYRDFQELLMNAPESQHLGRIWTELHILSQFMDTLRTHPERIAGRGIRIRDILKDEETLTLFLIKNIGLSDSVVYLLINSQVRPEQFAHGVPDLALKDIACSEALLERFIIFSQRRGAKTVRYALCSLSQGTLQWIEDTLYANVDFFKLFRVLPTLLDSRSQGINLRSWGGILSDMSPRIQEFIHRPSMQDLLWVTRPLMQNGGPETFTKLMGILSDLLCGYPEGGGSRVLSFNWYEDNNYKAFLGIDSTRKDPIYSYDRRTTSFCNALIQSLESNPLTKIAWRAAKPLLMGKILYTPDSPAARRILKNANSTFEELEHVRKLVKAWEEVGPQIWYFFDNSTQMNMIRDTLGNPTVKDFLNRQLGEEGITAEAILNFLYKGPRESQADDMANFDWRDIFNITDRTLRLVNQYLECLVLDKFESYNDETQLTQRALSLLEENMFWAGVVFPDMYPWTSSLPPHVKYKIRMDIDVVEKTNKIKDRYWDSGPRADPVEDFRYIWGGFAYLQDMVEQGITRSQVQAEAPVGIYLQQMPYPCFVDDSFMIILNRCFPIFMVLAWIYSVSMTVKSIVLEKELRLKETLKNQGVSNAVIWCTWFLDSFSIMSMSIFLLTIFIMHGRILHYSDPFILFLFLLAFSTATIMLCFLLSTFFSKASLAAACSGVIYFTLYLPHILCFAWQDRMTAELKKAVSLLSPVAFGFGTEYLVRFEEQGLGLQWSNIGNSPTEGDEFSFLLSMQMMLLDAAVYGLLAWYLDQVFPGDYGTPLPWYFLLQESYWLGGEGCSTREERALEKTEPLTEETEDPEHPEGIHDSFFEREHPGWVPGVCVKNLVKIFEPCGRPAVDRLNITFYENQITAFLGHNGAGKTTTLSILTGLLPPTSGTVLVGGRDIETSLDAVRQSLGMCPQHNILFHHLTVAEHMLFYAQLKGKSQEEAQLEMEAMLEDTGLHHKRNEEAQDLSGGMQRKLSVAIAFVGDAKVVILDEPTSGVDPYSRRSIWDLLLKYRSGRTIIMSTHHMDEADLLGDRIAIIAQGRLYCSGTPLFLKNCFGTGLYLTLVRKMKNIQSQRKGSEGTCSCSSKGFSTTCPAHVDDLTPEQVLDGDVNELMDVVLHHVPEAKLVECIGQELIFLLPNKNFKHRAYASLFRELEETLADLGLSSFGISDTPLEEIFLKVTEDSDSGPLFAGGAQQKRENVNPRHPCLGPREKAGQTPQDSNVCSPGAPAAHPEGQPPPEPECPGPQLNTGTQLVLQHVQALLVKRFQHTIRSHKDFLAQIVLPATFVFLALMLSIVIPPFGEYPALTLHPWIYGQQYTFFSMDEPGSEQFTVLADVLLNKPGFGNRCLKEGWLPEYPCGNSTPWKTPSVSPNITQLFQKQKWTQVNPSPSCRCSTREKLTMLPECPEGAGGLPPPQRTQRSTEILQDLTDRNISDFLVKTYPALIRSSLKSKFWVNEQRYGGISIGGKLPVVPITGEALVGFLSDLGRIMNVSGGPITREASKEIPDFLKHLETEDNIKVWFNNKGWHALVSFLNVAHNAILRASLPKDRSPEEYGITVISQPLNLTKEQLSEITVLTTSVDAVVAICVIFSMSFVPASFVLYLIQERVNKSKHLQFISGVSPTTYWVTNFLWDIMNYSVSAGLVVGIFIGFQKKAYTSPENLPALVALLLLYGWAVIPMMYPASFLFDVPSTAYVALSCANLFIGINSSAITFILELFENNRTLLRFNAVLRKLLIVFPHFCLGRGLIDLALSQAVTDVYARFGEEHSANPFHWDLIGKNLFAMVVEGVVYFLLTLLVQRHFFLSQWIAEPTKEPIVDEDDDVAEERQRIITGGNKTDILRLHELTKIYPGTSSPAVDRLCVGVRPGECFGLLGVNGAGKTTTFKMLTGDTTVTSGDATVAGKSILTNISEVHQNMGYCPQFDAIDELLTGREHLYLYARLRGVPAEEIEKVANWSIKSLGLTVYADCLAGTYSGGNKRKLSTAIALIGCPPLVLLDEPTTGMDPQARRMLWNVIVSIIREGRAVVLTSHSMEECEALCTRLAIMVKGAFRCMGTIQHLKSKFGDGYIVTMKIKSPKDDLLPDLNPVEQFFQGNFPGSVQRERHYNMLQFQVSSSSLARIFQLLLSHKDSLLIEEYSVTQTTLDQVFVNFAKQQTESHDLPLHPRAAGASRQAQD
# UniProt Q8IZP0: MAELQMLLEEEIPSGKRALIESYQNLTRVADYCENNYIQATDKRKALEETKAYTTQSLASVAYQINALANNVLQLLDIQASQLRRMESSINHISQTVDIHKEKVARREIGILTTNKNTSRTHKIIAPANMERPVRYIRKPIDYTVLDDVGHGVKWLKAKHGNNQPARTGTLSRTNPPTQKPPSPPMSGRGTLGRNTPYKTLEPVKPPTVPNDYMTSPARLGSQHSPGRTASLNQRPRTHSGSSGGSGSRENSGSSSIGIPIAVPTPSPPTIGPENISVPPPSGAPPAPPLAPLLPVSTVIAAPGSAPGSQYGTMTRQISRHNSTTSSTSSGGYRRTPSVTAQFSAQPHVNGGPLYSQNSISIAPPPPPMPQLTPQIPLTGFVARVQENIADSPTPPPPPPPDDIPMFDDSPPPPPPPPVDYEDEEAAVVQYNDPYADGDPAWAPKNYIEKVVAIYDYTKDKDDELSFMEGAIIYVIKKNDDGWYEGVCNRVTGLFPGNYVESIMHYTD
# UniProt Q9NUQ8: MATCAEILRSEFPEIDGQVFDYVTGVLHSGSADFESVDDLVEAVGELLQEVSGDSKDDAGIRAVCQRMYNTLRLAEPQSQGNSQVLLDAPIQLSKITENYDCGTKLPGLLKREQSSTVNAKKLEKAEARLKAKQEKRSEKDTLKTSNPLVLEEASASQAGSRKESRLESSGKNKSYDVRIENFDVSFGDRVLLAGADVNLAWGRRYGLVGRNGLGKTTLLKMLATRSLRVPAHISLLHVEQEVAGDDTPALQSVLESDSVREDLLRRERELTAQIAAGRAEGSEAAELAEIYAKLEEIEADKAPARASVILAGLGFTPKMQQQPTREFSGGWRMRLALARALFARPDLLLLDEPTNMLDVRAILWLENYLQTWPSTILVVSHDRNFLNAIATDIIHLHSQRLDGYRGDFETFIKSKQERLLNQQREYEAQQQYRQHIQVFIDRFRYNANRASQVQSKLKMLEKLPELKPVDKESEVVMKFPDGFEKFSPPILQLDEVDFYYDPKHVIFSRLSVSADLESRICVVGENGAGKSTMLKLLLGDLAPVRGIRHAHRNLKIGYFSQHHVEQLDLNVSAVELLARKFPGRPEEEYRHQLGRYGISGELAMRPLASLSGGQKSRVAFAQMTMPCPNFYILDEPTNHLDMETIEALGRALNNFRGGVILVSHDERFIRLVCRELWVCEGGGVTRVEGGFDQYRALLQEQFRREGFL
# UniProt P01023, whole entry, looked up: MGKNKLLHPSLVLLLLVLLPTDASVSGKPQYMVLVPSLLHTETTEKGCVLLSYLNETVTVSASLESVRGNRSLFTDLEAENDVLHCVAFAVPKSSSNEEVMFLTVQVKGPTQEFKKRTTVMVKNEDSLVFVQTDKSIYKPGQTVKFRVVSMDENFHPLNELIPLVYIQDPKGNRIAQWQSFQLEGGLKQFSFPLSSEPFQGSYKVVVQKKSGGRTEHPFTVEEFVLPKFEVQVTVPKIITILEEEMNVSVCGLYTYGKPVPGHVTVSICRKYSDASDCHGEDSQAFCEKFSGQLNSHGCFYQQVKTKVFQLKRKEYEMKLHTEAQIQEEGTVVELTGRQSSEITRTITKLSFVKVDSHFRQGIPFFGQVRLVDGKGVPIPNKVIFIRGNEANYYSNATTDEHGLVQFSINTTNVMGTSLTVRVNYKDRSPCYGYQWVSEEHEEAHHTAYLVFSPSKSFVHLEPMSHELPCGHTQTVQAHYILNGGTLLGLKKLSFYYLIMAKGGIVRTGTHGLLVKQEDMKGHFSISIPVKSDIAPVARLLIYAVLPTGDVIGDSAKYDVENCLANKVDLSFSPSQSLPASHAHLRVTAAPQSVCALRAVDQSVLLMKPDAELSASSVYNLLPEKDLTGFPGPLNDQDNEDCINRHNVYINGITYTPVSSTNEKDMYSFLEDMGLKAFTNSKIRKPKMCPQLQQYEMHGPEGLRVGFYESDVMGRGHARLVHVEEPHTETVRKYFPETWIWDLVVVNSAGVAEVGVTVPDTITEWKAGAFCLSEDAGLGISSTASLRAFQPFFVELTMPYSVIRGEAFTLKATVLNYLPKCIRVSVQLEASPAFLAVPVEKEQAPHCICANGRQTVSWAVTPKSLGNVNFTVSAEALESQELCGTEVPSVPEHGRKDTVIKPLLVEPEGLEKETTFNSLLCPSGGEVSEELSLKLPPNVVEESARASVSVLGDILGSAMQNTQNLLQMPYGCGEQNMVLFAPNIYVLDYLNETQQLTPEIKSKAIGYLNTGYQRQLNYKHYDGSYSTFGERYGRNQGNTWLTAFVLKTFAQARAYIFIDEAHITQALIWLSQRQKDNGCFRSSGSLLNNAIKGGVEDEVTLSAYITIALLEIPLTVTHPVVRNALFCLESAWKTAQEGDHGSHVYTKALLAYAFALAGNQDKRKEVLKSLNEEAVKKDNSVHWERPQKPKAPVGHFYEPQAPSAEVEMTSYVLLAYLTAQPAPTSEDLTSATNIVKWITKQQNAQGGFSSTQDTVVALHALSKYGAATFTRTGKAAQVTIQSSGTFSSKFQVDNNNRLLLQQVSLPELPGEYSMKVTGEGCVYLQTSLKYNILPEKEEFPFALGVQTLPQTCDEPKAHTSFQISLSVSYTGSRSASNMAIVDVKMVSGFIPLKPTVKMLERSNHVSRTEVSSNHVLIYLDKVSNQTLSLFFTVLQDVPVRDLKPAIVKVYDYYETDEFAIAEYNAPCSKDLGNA
# Assays:
# Assay in all cases: log2 fold change, soluble protein after heating vs DMSO (PISA); higher = thermal stabilisation; K562 lysate, 10 uM; active = over 0.2 and 3.5 SD of the protein, either way, in both replicates (recomputed)
# lapatinib = compound: CS(=O)(=O)CCNCc1ccc(-c2ccc3ncnc(Nc4ccc(OCc5cccc(F)c5)c(Cl)c4)c3c2)o1 [lapatinib]
# How it was run: (§1)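 Log-two fold change in thermal stability relative to solvent controls is reported from duplicates. For each sample, crude K562 extract from dounce-homogenised pellets in PBS pH 7.4 with 1 mM MgCl2, at 1 mg/mL protein, was treated with 10 μM compound for 30 min. Aliquots heated for 3 min across 48°C-58°C were pooled, brought to 0.5% NP-40 at 4°C and cleared at 21,000xg for 90 min. The supernatant was quantified by TMTpro 16plex LC-MS/MS with channel sums equalised.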
# pictilisib = compound: CS(=O)(=O)N1CCN(Cc2cc3nc(-c4cccc5[nH]ncc45)nc(N4CCOCC4)c3s2)CC1 [pictilisib]
# How it was run: as §1
# crizotinib = compound: C[C@@H](Oc1cc(-c2cnn(C3CCNCC3)c2)cnc1N)c1c(Cl)ccc(F)c1Cl [crizotinib]
# How it was run: as §1
# [1] = compound: C[C@H](C1=CC=C(C=C1)C(=O)NC2=C3C=CNC3=NC=C2)N
# How it was run: as §1
# duvelisib = compound: C[C@H](Nc1ncnc2nc[nH]c12)c1cc2cccc(Cl)c2c(=O)n1-c1ccccc1 [duvelisib]
# How it was run: as §1
# gandotinib = compound: Cc1cc(Nc2cc(CN3CCOCC3)c3nc(C)c(Cc4ccc(Cl)cc4F)n3n2)n[nH]1 [gandotinib]
# How it was run: as §1
# tozasertib = compound: Cc1cc(Nc2cc(N3CCN(C)CC3)nc(Sc3ccc(NC(=O)C4CC4)cc3)n2)n[nH]1 [tozasertib]
# How it was run: as §1
# doramapimod = compound: Cc1ccc(-n2nc(C(C)(C)C)cc2NC(=O)Nc2ccc(OCCN3CCOCC3)c3ccccc23)cc1 [doramapimod]
# How it was run: as §1
# bafetinib = compound: Cc1ccc(NC(=O)c2ccc(CN3CC[C@H](N(C)C)C3)c(C(F)(F)F)c2)cc1Nc1nccc(-c2cncnc2)n1 [bafetinib]
# How it was run: as §1
# [2] = compound: Cc1cccc(CC(=O)N2CCc3c2ccc(-c2cn(C)c4ncnc(N)c24)c3F)n1
# How it was run: as §1
# nilotinib = compound: Cc1cn(-c2cc(NC(=O)c3ccc(C)c(Nc4nccc(-c5cccnc5)n4)c3)cc(C(F)(F)F)c2)cn1 [nilotinib]
# How it was run: as §1
# [3] = compound: Cc1nc(Nc2n[nH]c3c2CN(C(=O)N[C@H](CN(C)C)c2ccccc2)C3(C)C)c2sccc2n1
# How it was run: as §1
# dasatinib = compound: Cc1nc(Nc2ncc(C(=O)Nc3c(C)cccc3Cl)s2)cc(N2CCN(CCO)CC2)n1 [dasatinib]
# How it was run: as §1
# [4] = compound: Cc1ncc(-c2ccnc(Nc3ccc(S(C)(=O)=O)cc3)n2)n1C(C)C
# How it was run: as §1
# [5] = compound: Cn1cc(-c2ccc3c(c2)CCN3C(=O)Cc2cccc(C(F)(F)F)c2)c2c(N)ncnc21
# How it was run: as §1
# quisinostat = compound: Cn1cc(CNCC2CCN(c3ncc(C(=O)NO)cn3)CC2)c2ccccc21 [quisinostat]
# How it was run: as §1
# tipifarnib = compound: Cn1cncc1[C@@](N)(c1ccc(Cl)cc1)c1ccc2c(c1)c(-c1cccc(Cl)c1)cc(=O)n2C [tipifarnib]
# How it was run: as §1
# [6] = compound: NC(=O)Nc1cc(-c2cccc(F)c2)sc1C(=O)N[C@H]1CCCNC1
# How it was run: as §1
# [7] = compound: NC(=O)c1cnc(N[C@@H]2CCCC[C@@H]2N)nc1Nc1cccc(-n2nccn2)c1
# How it was run: as §1
# [8] = compound: NC1(c2ccc(-c3nc4ccn5c(=O)[nH]nc5c4cc3-c3ccccc3)cc2)CCC1
# How it was run: as §1
Target,log2 fold change (lapatinib),log2 fold change (pictilisib),log2 fold change (crizotinib),log2 fold change [1],log2 fold change (duvelisib),log2 fold change (gandotinib),log2 fold change (tozasertib),log2 fold change (doramapimod),log2 fold change (bafetinib),log2 fold change [2],log2 fold change (nilotinib),log2 fold change [3],log2 fold change (dasatinib),log2 fold change [4],log2 fold change [5],log2 fold change (quisinostat),log2 fold change (tipifarnib),log2 fold change [6],log2 fold change [7],log2 fold change [8]
AACS (UniProt Q86V21),inactive: 0.055,inactive: -0.019,inactive: -0.061,inactive: 0.013,inactive: 0.053,inactive: -0.034,inactive: 0.081,inactive: 0.019,inactive: -0.027,inactive: 0.073,inactive: 0.003,inactive: 0.007,inactive: 0.013,inactive: -0.025,inactive: 0.049,inactive: -0.011,inactive: -0.049,inactive: 0.05,inactive: -0.008,inactive: 0.016
ACACB (UniProt O00763),inactive: -0.032,inactive: -0.029,inactive: -0.103,inactive: -0.113,inactive: 0.032,inactive: 0.021,inactive: 0.072,inactive: 0.054,inactive: -0.113,inactive: 0.165,inactive: -0.001,inactive: -0.042,inactive: -0.021,inactive: -0.052,inactive: 0.05,inactive: -0.061,inactive: 0.048,inactive: 0.062,inactive: -0.001,inactive: -0.018
ABCF1 (UniProt Q8NE71),inactive: -0.012,inactive: 0.002,inactive: -0.018,inactive: -0.023,inactive: 0.008,inactive: -0.085,inactive: -0.015,inactive: 0.015,inactive: -0.033,inactive: 0.02,inactive: 0.001,inactive: -0.011,inactive: -0.018,inactive: 0,inactive: 0.013,inactive: 0.015,inactive: -0.005,inactive: 0.04,inactive: -0.013,inactive: -0.015
ABCA4 (UniProt P78363),inactive: -0.038,inactive: -0.012,inactive: -0.093,inactive: -0.11,inactive: 0.024,inactive: 0.099,inactive: 0.034,inactive: -0.026,inactive: -0.025,inactive: 0.048,inactive: 0.029,inactive: -0.072,inactive: -0.029,inactive: 0.109,inactive: 0.036,inactive: -0.103,inactive: 0.166,inactive: 0.004,inactive: 0.022,inactive: -0.108
ABI1 isoform 9 (UniProt Q8IZP0),inactive: 0.011,inactive: -0.048,inactive: -0.006,active: -0.26,inactive: 0.01,inactive: 0.13,inactive: 0.008,inactive: -0.015,inactive: 0.08,inactive: 0.163,inactive: -0.006,inactive: -0.004,inactive: -0.001,inactive: -0.02,inactive: -0.016,inactive: 0.003,inactive: -0.01,inactive: -0.023,inactive: 0.003,inactive: 0.032
ABCF3 (UniProt Q9NUQ8),inactive: -0.019,inactive: 0.006,inactive: -0.033,inactive: 0.02,inactive: 0.018,inactive: -0.075,inactive: 0.063,inactive: 0.011,inactive: -0.062,inactive: 0.017,inactive: -0.025,inactive: 0.014,inactive: -0.053,inactive: 0.001,inactive: 0.044,inactive: -0.04,inactive: -0.003,inactive: 0.012,inactive: 0.011,inactive: -0.062
A2M (UniProt P01023),inactive: -0.011,inactive: -0.019,inactive: 0.073,inactive: -0.064,inactive: -0.021,inactive: 0.006,inactive: -0.059,inactive: -0.105,inactive: -0.03,inactive: -0.01,inactive: 0.049,inactive: 0.012,inactive: -0.002,inactive: -0.019,inactive: 0.001,inactive: 0.109,inactive: -0.031,inactive: 0.003,inactive: -0.01,inactive: 0.014
